In the supplement of paper PMC10849652:
Some of the results follow.

Amino acid sequences for entries named in this document (tags omitted). A change or cut given only in a name is not applied to a line headed by its entry.
UniProt P43155: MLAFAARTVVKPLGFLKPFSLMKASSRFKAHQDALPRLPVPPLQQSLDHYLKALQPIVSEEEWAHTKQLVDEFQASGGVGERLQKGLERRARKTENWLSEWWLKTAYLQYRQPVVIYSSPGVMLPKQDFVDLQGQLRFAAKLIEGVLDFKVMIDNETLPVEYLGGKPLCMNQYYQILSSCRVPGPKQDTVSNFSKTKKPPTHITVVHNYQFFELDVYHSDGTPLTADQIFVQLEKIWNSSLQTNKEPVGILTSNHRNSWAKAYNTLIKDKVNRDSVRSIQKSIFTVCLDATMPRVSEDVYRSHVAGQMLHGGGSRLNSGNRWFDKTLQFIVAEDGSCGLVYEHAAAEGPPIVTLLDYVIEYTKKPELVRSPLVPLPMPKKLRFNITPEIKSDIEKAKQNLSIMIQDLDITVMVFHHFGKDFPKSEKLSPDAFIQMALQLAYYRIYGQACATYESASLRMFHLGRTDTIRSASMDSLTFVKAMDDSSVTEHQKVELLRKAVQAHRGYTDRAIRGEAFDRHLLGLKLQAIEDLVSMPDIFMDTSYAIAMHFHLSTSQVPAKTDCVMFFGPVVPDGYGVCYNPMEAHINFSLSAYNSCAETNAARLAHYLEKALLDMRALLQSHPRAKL
UniProt Q9NXE8: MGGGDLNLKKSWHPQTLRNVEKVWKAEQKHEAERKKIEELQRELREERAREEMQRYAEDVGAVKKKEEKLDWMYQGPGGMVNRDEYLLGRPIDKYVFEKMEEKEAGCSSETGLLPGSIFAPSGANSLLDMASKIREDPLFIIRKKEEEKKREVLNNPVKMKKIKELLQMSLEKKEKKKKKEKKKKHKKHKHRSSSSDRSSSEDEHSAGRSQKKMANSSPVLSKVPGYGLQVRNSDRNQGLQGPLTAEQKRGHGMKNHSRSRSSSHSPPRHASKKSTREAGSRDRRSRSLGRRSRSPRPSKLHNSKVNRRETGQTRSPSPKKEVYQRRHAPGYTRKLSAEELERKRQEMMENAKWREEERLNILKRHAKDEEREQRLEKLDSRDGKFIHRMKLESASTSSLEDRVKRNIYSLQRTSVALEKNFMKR
UniProt Q96DE9: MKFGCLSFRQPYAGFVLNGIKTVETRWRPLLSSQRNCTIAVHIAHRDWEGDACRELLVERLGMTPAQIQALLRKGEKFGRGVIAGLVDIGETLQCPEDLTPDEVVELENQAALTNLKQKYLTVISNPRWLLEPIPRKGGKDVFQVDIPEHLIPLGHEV
UniProt Q9Y2S2: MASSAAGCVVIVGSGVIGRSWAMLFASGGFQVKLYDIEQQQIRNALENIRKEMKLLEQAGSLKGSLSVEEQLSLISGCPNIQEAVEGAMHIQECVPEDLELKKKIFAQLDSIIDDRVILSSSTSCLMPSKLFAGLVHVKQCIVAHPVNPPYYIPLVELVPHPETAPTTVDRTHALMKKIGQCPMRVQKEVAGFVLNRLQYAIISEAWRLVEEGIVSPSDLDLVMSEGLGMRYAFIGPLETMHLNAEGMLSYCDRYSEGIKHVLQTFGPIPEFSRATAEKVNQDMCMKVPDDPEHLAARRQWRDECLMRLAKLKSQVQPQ
UniProt Q7Z7A3: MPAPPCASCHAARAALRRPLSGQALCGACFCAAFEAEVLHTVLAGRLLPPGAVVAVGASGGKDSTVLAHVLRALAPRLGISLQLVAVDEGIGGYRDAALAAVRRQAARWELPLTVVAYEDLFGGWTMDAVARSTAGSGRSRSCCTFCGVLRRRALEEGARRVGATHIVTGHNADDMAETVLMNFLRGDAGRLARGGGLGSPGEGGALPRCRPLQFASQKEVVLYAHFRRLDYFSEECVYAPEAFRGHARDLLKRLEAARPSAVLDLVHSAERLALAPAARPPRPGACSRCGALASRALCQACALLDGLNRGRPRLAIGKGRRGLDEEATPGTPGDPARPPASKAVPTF
UniProt Q9GZU7: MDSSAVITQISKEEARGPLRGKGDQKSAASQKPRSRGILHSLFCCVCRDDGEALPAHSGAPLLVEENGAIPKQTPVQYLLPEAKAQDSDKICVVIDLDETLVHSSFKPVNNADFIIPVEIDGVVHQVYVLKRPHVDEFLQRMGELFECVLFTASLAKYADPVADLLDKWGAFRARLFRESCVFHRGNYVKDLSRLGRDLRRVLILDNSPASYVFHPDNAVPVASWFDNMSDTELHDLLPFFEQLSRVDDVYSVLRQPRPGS
UniProt P09603: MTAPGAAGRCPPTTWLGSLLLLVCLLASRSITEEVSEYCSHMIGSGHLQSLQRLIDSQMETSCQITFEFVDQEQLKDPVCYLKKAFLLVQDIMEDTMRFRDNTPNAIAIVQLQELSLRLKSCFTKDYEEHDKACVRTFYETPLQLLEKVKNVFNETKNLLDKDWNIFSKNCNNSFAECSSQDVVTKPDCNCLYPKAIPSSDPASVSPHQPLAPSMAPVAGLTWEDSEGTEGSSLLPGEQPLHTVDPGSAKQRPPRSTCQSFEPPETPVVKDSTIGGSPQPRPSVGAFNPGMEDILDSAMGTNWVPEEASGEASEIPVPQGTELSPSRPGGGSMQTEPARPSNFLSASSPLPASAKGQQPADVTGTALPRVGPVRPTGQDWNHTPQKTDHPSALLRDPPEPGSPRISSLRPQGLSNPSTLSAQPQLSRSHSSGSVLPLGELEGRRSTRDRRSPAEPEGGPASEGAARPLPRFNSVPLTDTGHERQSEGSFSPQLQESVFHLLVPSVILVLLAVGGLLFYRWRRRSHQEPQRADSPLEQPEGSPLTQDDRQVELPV
UniProt Q8NI51: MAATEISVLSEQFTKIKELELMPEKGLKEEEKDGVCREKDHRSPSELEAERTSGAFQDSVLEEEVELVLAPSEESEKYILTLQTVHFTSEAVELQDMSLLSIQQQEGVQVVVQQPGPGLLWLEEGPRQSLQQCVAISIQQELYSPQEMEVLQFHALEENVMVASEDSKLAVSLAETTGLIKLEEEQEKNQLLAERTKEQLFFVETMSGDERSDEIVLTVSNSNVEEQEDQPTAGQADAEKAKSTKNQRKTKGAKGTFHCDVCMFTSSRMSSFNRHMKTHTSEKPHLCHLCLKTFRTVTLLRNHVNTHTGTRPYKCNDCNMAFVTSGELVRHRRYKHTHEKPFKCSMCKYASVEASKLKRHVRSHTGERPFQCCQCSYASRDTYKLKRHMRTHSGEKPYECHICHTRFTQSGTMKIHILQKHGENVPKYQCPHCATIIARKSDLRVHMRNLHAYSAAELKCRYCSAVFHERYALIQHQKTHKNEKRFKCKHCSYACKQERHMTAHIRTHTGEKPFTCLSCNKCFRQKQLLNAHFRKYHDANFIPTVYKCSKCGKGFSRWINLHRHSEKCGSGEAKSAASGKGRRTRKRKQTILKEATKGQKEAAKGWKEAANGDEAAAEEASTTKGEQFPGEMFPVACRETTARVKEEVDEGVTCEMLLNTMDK
UniProt Q9Y6M4: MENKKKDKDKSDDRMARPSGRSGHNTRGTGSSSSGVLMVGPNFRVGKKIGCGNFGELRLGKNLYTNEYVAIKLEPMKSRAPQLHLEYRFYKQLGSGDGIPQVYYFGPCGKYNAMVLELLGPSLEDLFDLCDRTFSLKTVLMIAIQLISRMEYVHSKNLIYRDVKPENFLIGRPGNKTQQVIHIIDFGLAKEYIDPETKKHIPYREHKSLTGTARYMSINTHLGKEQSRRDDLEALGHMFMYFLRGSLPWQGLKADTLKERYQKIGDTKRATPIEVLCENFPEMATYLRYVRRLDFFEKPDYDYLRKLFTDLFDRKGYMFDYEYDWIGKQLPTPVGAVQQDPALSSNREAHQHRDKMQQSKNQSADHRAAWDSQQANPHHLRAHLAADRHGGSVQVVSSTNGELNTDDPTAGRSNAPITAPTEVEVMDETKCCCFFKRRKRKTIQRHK
UniProt Q9NQC7: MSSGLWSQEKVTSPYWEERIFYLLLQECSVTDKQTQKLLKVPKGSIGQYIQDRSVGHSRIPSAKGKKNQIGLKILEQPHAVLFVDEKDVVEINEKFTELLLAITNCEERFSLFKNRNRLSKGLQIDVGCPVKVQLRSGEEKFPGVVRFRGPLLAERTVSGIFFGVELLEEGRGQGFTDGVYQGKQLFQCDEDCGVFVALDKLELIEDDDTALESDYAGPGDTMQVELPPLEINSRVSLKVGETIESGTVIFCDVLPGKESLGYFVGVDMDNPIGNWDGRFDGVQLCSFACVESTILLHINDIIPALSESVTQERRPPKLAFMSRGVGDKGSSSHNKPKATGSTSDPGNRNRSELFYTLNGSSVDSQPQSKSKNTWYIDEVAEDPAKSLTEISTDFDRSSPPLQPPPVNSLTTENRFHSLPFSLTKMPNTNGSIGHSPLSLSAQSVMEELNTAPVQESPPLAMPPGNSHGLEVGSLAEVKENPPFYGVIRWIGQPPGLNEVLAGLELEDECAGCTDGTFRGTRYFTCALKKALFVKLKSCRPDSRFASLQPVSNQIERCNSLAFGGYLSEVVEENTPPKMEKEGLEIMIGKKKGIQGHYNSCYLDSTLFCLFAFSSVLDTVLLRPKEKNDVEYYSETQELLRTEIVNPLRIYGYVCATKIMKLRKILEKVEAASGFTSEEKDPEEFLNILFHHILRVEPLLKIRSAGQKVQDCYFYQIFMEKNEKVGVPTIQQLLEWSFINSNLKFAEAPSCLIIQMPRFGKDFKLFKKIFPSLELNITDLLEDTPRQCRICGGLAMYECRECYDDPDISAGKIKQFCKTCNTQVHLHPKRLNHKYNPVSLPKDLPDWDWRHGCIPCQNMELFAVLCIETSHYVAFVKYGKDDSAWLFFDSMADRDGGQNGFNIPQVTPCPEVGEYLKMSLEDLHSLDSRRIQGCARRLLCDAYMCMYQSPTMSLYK
UniProt O75534: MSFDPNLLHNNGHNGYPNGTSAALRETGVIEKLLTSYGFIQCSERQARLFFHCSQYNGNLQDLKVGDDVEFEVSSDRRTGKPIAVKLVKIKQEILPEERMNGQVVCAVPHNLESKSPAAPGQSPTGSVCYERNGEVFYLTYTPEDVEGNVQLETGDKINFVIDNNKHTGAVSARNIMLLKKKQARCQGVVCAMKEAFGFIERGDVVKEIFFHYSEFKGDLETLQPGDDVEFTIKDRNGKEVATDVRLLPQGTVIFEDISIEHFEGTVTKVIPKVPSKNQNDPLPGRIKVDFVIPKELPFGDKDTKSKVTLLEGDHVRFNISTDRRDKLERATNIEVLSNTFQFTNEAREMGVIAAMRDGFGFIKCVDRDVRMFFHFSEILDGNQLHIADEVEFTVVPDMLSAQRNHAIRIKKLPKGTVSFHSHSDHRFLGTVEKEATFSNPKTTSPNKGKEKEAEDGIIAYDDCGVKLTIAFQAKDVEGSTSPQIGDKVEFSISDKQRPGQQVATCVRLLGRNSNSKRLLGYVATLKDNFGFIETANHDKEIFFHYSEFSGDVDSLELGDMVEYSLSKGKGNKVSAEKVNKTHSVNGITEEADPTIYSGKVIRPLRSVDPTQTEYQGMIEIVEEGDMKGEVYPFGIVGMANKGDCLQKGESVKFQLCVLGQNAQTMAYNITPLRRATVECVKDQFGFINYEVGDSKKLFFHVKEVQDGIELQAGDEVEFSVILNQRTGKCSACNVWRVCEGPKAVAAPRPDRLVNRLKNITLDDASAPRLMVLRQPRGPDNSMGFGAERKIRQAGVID
UniProt Q7LFL8: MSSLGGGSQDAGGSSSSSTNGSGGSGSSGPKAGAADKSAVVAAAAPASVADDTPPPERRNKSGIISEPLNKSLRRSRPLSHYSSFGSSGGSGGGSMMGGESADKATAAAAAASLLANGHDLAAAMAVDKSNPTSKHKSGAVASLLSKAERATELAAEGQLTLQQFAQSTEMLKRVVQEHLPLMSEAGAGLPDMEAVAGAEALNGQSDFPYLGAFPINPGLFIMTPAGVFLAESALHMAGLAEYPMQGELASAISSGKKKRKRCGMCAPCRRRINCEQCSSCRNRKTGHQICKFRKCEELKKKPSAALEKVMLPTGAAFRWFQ
UniProt Q9UJA2: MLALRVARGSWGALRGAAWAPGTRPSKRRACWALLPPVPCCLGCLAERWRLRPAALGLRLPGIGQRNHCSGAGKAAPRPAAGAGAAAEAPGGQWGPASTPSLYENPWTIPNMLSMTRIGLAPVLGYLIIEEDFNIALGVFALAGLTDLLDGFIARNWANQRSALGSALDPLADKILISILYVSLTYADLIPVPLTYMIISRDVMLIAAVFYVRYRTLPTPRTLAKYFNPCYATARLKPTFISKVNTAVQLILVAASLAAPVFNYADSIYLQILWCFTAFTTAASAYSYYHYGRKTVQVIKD
UniProt P00167, whole entry, looked up: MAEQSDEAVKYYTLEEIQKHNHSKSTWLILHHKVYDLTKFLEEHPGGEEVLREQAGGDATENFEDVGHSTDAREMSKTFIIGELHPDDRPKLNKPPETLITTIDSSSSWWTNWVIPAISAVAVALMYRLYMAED
UniProt P52943: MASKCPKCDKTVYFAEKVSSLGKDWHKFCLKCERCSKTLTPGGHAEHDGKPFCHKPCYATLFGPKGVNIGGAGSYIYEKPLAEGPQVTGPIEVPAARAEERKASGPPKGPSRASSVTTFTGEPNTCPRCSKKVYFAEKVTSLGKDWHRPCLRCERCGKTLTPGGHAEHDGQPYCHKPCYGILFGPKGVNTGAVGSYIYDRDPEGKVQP

Assays:
Test in all cases: log2 fold change, soluble protein after heating vs DMSO (PISA); higher = thermal stabilisation; K562 lysate, 10 uM; active = over 0.2 and 3.5 SD of the protein, either way, in both replicates (recomputed)
[1] = compound: CCCS(=O)(=O)Nc1ccc(F)c(C(=O)c2c[nH]c3ncc(Cl)cc23)c1F
Summary of the method: (§1)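 Log-two fold change in thermal stability relative to solvent controls is reported from duplicates. For each sample, crude K562 extract from dounce-homogenised pellets in PBS pH 7.4 with 1 mM MgCl2, at 1 mg/mL protein, was treated with 10 μM compound for 30 min. Aliquots heated for 3 min across 48°C-58°C were pooled, brought to 0.5% NP-40 at 4°C and cleared at 21,000xg for 90 min. The supernatant was quantified by TMTpro 16plex LC-MS/MS with channel sums equalised.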

barasertib = compound: CCN(CCCOc1ccc2c(Nc3cc(CC(=O)Nc4cccc(F)c4)[nH]n3)ncnc2c1)CCOP(=O)(O)O [barasertib]
Summary of the method: as §1

[2] = compound: CC[C@@H]1C(=O)N(C)c2cnc(Nc3ccc(C(=O)NC4CCN(C)CC4)cc3OC)nc2N1C1CCCC1
Summary of the method: as §1

volasertib = compound: CC[C@@H]1C(=O)N(C)c2cnc(Nc3ccc(C(=O)N[C@H]4CC[C@H](N5CCN(CC6CC6)CC5)CC4)cc3OC)nc2N1C(C)C [volasertib]
Summary of the method: as §1

[3] = compound: CCn1c(C(=O)N(C2CC2)C2CC2)cc2c3c(ncn3C)c(Nc3cc(C)n(C)n3)nc21
Summary of the method: as §1

[4] = compound: CCn1cc(-c2ccnc3[nH]c(-c4cccc(CN(C)C)c4)cc23)c(-c2ccc(NC(=O)N(C)C)cc2)n1
Summary of the method: as §1

[5] = compound: CN1CCC(CNc2ccc3ncc(-c4cccc(OC(F)(F)F)c4)n3n2)CC1
Summary of the method: as §1

saracatinib = compound: CN1CCN(CCOc2cc(OC3CCOCC3)c3c(Nc4c(Cl)ccc5c4OCO5)ncnc3c2)CC1 [saracatinib]
Summary of the method: as §1

sotrastaurin = compound: CN1CCN(c2nc(C3=C(c4c[nH]c5ccccc45)C(=O)NC3=O)c3ccccc3n2)CC1 [sotrastaurin]
Summary of the method: as §1

vemurafenib = compound: CCCS(=O)(=O)Nc1ccc(F)c(C(=O)c2c[nH]c3ncc(-c4ccc(Cl)cc4)cc23)c1F [vemurafenib]
Summary of the method: as §1

Measured: log2 fold change

CYBC1 (UniProt Q9BQA9)
inactive: [1] 0.017 | barasertib 0.057 | [2] -0.003 | volasertib 0.046 | [3] 0.051 | [4] -0.205 | [5] 0.073 | saracatinib -0.032 | sotrastaurin 0.006

CTIF isoform 2 (UniProt O43310)
inactive: vemurafenib -0.056 | [1] 0.027 | barasertib -0.066 | [2] -0.048 | volasertib -0.007 | [3] -0.005 | [4] -0.157 | [5] 0.042 | saracatinib 0.067 | sotrastaurin -0.011

CRAT (UniProt P43155)
inactive: vemurafenib 0.172 | [1] -0.085 | barasertib 0.063 | volasertib 0.073 | [3] -0.013 | saracatinib 0.143 | sotrastaurin 0.037

CWC25 (UniProt Q9NXE8)
inactive: vemurafenib 0.071 | [1] -0.046 | barasertib 0.188 | [2] 0.113 | volasertib 0.069 | [4] 0.047 | [5] -0.022 | sotrastaurin -0.036

CTNS isoform 2 (UniProt O60931)
inactive: vemurafenib 0.058 | barasertib 0.071 | [2] 0.056 | [3] 0.108 | [4] -0.314 | [5] 0.257 | saracatinib -0.184 | sotrastaurin -0.07

CXorf40B (UniProt Q96DE9)
inactive: vemurafenib -0.003 | [1] -0.15 | barasertib -0.016 | volasertib 0.244 | [3] 0.067 | [4] 0.001 | [5] -0.067 | saracatinib 0.04 | sotrastaurin 0.037

CRAMP1 (UniProt Q96RY5)
inactive: vemurafenib 0.053 | [2] 0.123 | saracatinib -0.108

CRYL1 (UniProt Q9Y2S2)
inactive: vemurafenib 0.365 | [1] 0.045 | volasertib 0.074 | saracatinib -0.036 | sotrastaurin 0.127

CTU1 (UniProt Q7Z7A3)
inactive: vemurafenib -0.01 | [1] 0.003 | barasertib -0.03 | [2] 0.037 | volasertib 0.012 | [3] -0.067 | [4] -0.026 | [5] -0.005 | saracatinib 0.017 | sotrastaurin 0.01

CROT isoform 3 (UniProt Q9UKG9)
inactive: [2] -0.151 | [4] -0.014 | [5] 0.067 | sotrastaurin 0

CS (UniProt F8VU34)
inactive: [1] 0.184 | barasertib 0.214 | volasertib 0.11 | [3] 0.061 | saracatinib 0.094

CTDNEP1 (UniProt O95476)
inactive: saracatinib -0.032 | sotrastaurin 0.08

CTDSP1 (UniProt Q9GZU7)
inactive: [3] -0.002 | [4] 0.2 | [5] -0.091 | saracatinib 0.134 | sotrastaurin -0.008

CUL9 (UniProt Q8IWT3)
inactive: [1] -0.05 | barasertib 0.194 | volasertib 0.044 | [4] -0.191 | [5] -0.309 | sotrastaurin -0.032

CSGALNACT2 (UniProt Q8N6G5)
inactive: [1] -0.013 | volasertib -0.323 | saracatinib 0.083 | sotrastaurin -0.085

CSRP2 (UniProt Q16527)
active: sotrastaurin -0.351
inactive: barasertib 0.078 | [2] 0.052 | [4] 0.09 | [5] 0.126

CYFIP1, A0A0G2JRV9
inactive: [1] -0.089 | volasertib -0.069

Two consecutive entries out of the list so far:
CTDSP1 (UniProt Q9GZU7)
inactive: [3] -0.002 | [4] 0.2 | [5] -0.091 | saracatinib 0.134 | sotrastaurin -0.008

CUL9 (UniProt Q8IWT3)
inactive: [1] -0.05 | barasertib 0.194 | volasertib 0.044 | [4] -0.191 | [5] -0.309 | sotrastaurin -0.032

More results.

CTSF (UniProt Q9UBX1)
inactive: [3] 0.164 | [4] -0.091 | [5] -0.098

CRISP3 isoform 3 (UniProt P54108)
inactive: [3] 0.087 | [4] 0.21 | [5] -0.175 | saracatinib -0.25

CTDSP1 isoform 3 (UniProt Q9GZU7)
inactive: barasertib 0.066

CSF1 (UniProt P09603)
inactive: [4] -0.078 | [5] -0.03

CST1 (UniProt P01037)
inactive: [2] -0.265 | [3] 0.13 | [4] 0.014 | [5] -0.059 | sotrastaurin -0.06

CSNK1A1 isoform 3 (UniProt P48729)
inactive: [3] -0.199 | saracatinib -0.175

CTSS (UniProt P25774)
inactive: [2] -0.19 | [4] -0.058 | [5] 0.227 | saracatinib -0.058

CTCFL isoform 7 (UniProt Q8NI51)
inactive: barasertib 0.108 | [2] 0 | sotrastaurin -0.097

CSNK1G3 isoform 4 (UniProt Q9Y6M4)
inactive: [1] -0.238 | volasertib 0.111

CROCC2 (UniProt H7BZ55)
inactive: [1] -0.011 | barasertib -0.262 | [2] -0.05 | volasertib -0.034 | saracatinib 0.074 | sotrastaurin -0.051

CYLD (UniProt Q9NQC7)
inactive: sotrastaurin -0.061

CSNK1G1 (UniProt Q9HCP0)
inactive: [1] -0.235 | barasertib 0.01 | volasertib 0.027 | saracatinib -0.001

CSDE1 isoform 3 (UniProt O75534)
inactive: [1] -0.014 | barasertib 0.05 | volasertib -0.193 | [3] 0.113 | [4] -0.064 | [5] -0.104 | sotrastaurin 0.07

CXXC5 (UniProt Q7LFL8)
inactive: saracatinib -0.145

CREM isoform 1 (UniProt Q03060)
inactive: [1] -0.028 | barasertib -0.075 | volasertib -0.011 | [3] -0.094 | [4] -0.018 | [5] 0.022 | saracatinib 0.013 | sotrastaurin 0.035

CRY1 (UniProt Q16526)
inactive: [4] 0.056 | [5] -0.076

CRLS1 (UniProt Q9UJA2)
inactive: [1] 0.063 | barasertib 0.014 | volasertib 0.005 | [3] 0.017 | [4] 0.022 | [5] -0.301 | sotrastaurin -0.008

CTSG (UniProt P08311)
inactive: [3] -0.042 | [4] -0.437 | [5] 0.305 | saracatinib 0.081 | sotrastaurin 0.105

CYB5A (UniProt P00167)
inactive: barasertib 0.169 | [2] 0.183 | [3] 0.023 | [4] -0.167 | [5] 0.074 | saracatinib -0.074 | sotrastaurin -0.084

CSRNP2 (UniProt Q9H175)
inactive: [3] 0.101 | saracatinib -0.049

CSNK2A1, A0A2R8Y4D6
inactive: [1] 0.107 | volasertib -0.325

CRIP2 isoform 2 (UniProt P52943)
inactive: [1] -0.04 | barasertib -0.018 | volasertib -0.017 | [3] -0.004 | [4] 0.085 | [5] 0.158 | saracatinib 0.045 | sotrastaurin 0.004

CTNNBIP1 (UniProt Q9NSA3)
inactive: saracatinib -0.089

CROCCP2 (UniProt Q86T23)
inactive: [1] 0.03 | [2] 0.042 | volasertib -0.098 | sotrastaurin 0.094

CSAD isoform 3 (UniProt Q9Y600)
inactive: [3] 0.001 | sotrastaurin -0.003
active: barasertib 0.456
